Measured values as given in article PMC3877063.
These are yes or no findings as the source states them, for the method shown. Some entries that bind do so weakly or less than the wild type.

Chains of the proteins cited; added tags and fusions are not shown. Lines headed by an entry give the natural chain unless they say otherwise; changes in a name come on top. Residues count along the entry.
UniProt O60603: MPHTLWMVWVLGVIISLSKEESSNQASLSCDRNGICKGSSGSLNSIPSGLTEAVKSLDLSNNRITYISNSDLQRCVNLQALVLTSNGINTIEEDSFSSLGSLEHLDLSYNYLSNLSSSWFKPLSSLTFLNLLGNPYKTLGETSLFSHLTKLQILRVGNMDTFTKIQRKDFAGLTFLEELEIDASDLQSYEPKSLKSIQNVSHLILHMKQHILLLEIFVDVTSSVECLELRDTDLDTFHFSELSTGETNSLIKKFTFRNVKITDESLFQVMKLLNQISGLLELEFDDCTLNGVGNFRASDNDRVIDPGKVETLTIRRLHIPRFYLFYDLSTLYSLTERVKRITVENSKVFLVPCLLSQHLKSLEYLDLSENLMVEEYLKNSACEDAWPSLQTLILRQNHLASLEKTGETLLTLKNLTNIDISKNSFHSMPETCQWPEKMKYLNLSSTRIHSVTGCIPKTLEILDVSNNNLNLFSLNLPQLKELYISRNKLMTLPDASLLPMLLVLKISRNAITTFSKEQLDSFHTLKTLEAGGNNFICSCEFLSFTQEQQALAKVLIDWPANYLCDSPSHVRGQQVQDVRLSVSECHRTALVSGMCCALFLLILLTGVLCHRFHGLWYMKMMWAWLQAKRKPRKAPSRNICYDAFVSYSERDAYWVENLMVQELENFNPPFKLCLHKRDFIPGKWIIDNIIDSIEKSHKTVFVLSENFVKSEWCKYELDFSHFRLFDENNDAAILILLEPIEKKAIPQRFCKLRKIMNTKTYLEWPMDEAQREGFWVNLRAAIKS
recombinant soluble form of extracellular TLR2 domain (sTLR2): residues 21-587 of O60603
UniProt O00206: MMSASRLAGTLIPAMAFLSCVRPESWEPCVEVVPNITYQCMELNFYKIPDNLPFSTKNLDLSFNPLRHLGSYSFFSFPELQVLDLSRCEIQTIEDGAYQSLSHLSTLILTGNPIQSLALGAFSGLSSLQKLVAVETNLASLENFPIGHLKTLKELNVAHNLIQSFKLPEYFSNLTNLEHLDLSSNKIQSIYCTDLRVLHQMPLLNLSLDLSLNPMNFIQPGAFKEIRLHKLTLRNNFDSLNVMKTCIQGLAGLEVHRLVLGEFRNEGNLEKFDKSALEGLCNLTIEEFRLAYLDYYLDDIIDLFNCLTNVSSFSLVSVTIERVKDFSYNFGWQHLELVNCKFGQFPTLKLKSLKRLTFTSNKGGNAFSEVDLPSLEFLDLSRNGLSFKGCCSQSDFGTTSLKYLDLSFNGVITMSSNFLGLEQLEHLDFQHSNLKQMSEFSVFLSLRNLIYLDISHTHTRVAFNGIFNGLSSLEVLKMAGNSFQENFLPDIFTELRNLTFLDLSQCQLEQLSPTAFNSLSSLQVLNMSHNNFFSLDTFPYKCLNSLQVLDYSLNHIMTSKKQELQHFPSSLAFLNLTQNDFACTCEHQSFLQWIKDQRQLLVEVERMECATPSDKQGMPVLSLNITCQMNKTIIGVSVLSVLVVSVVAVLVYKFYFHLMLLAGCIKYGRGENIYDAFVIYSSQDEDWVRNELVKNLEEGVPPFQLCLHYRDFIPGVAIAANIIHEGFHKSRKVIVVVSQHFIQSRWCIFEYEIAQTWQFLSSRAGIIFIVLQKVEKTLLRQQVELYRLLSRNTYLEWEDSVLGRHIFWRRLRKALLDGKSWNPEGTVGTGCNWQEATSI
Toll-like receptor 4 (TLR4) expressed on PMA-activated THP-1 cells (human (endogenous in THP-1)): residues 24-839 of O00206
soluble form of recombinant TLR4 extracellular domain (sTLR4): residues 24-631 of O00206
UniProt P11226, residues 21-248: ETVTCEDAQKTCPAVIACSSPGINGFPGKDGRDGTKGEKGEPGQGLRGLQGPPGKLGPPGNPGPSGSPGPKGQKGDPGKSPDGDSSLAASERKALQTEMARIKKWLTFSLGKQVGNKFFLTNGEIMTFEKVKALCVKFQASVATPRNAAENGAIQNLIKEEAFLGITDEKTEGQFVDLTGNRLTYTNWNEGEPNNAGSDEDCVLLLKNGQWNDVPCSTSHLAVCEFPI

What was measured:
[1] = target: Toll-like receptor 2 (TLR2) expressed on PMA-activated THP-1 cells (human (endogenous in THP-1)) (UniProt O60603); test: flow cytometry on cells; PMA-activated THP-1 cells in Tris-buffered saline pH 7.4, 5 mM CaCl2, 1% BSA; preincubated 10 min with anti-TLR2 (TL2.1) or anti-TLR4 (HTA125) mAb or isotype control, then biotinylated MBL, ExtrAvidin-FITC; only the binder purified
[2] = target: Toll-like receptor 4 (TLR4) expressed on PMA-activated THP-1 cells (human (endogenous in THP-1)) (UniProt O00206); test: as above
[3] = target: deglycosylated sTLR2 (UniProt O60603); test: co-IP; 2 ug MBL incubated with 2 ug sTLR2 or sTLR4 at 37°C for 2 h in 20 mM Tris pH 7.4, 0.15 M NaCl, 5 mM CaCl2, 3 mg/ml BSA; precipitated with anti-sTLR2 or anti-sTLR4 pAb and protein G-Sepharose; blot with anti-human MBL mAb HYB 131-11; both purified
[4] = target: deglycosylated sTLR4 (UniProt O00206); test: as above
[5] = target: soluble form of recombinant TLR4 extracellular domain (sTLR4) (UniProt O00206); test: ELISA; sTLR2 or sTLR4 (10 ug/ml, 50 ul/well) coated onto microtiter wells; MBL in 10 mM Hepes pH 7.4, 0.15 M NaCl, 5 mM CaCl2, 5 mg/ml BSA, 37°C for 5 h; detected with anti-MBL mAb HYB 131-11; both purified
[6] = target: recombinant soluble form of extracellular TLR2 domain (sTLR2) (UniProt O60603); test: as above

Measured: binding

biotinylated MBL (from UniProt P11226 21-248)
binds: [1] | [2]

Mannan-binding lectin (MBL), purified from human plasma (from UniProt P11226 21-248)
binds: [3] | [4] | [5] | [6]
